The target in this experiment is neonatal Fc receptor (FcRn). The experiment is described as follows: SPR (Biacore), antibody captured, FcRn as analyte.

These are yes or no findings as the source states them, for the method shown. Binding can be weak; no strength is given.

B1: PD1-C40-6A7-FV3A (bispecific antibody, human IgG4 S228P, kappa)
heavy: EVQLVESGGGLVQPGGSLRLSCAASGFTFSSYSMSWVRQAPGKRLEWVAHISSGGSSTYYPDTVKGRFTISRDNSKNTLYLQMNSLRAEDTAMYYCTRQFYYGSSFWYFDVWGAGTTVTVSSASTKGPSVFPLAPCSRSTSESTAALGCLVKDYFPEPVTVSWNSGALTSGVHTFPAVLQSSGLYSLSSVVTVPSSSLGTKTYTCNVDHKPSNTKVDKRVESKYGPPCPPCPAPEFLGGPSVFLFPPKPKDTLMISRTPEVTCVVVDVSQEDPEVQFNWYVDGVEVHNAKTKPREEQFNSTYRVVSVLTVLHQDWLNGKEYKCKVSNKGLPSSIEKTISKAKGQPREPQVYTLPPSQEEGGGGSGGGGSDVVMTQSPLSLPVTLGQPASISCRSSQSLLHSNGNTYLHWYQQRPGQSPNHLIYQVSNRFSGVPDRFSGSGSGTDFTLKISRVEAEDVGVYFCSQTTHVPWTFGCGTKVEIKGGGGSGGGGSGGGGSGGGGSQVQLVQSGAEVKKPGASVKLSCKASGYTFISYYIYWVKQAPGQCLEWIGGINPRNGGTNFNEKFKSRATLTVDTSISTAYMELSRLRSEDTAVYYCTRHGNGVYWGQGTTLTVSSGGGGSGGGGSVSLTCLVKGFYPSDIAVEWESNGQPENNYKTTPPVLDSDGSFFLYSRLTVDKSRWQEGNVFSCSVMHEALHNHYTQKSLSLSPGK
light: DNVLTQSPATLSVSPGERATLSCKASQSVDFDGDSYMNWYQQKPGQPPRLLIYAASNLESGIPARFSGSGSGTDFTLTISSVEPEDFATYYCQQSNEDPPTFGGGTKVEIKRTVAAPSVFIFPPSDEQLKSGTASVVCLLNNFYPREAKVQWKVDNALQSGNSQESVTEQDSKDSTYSLSSTLTLSKADYEKHKVYACEVTHQGLSSPVTKSFNRGEC
Consider B1, for which the binding entry is “binds”.

The record behind these values is patent US20260234260A1.
